Test results as given in PMC7067850, “Identification of highly potent and selective inhibitor, TIPTP, of the p22phox-Rubicon axis as a therapeutic agent for rheumatoid arthritis” (Scientific Reports, 2020).
These are yes or no findings as the source states them, for the method shown. Binding seen in cells or lysates may run through a third protein. Some results given as binding are weak or reduced against the parent protein; the word gives no strength.

T1: Run/cysteine-rich-domain-containing Beclin1-interacting autophagy protein (Rubicon) (mouse, endogenous) (mouse (endogenous in synoviocytes of CIA mice, BMDMs)) (UniProt Q80U62)
T1 sequence: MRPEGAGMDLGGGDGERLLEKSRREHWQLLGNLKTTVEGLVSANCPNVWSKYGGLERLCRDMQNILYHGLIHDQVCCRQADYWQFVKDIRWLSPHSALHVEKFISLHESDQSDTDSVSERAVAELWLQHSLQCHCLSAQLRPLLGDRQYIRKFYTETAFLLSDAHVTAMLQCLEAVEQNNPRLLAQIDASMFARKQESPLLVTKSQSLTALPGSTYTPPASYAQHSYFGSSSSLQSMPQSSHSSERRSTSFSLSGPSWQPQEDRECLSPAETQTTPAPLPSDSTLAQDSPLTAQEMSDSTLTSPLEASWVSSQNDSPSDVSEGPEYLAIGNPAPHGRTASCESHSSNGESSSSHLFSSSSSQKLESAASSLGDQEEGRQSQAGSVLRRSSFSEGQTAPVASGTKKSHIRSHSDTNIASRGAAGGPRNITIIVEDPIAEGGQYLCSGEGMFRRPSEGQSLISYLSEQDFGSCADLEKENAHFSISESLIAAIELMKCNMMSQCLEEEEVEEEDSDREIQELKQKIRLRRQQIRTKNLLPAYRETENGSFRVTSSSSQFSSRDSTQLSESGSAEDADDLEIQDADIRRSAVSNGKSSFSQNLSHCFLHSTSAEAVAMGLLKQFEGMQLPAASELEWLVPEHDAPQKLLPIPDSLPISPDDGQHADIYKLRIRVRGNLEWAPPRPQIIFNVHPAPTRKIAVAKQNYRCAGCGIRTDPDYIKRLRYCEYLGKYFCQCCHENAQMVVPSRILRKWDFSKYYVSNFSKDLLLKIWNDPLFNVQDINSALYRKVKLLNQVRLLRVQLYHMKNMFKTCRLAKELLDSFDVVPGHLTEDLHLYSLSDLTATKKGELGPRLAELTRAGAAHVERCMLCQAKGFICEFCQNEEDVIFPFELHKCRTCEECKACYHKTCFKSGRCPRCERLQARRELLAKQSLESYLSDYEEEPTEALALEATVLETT

T2: p22phox (human, endogenous) (human (endogenous in monocytes and in synoviocytes of RA patients)) (UniProt P13498)
T2 sequence: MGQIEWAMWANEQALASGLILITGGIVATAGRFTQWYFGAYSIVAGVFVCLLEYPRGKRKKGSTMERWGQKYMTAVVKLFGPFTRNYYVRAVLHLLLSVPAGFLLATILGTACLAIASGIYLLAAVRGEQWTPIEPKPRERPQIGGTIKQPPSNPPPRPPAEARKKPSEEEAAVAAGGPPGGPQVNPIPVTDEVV


Assays:
[1] = molecular target: T1, Run/cysteine-rich-domain-containing Beclin1-interacting autophagy protein (Rubicon) (mouse, endogenous) (mouse (endogenous in synoviocytes of CIA mice, BMDMs)); assay: co-IP; endogenous proteins, mouse BMDMs primed with LPS (100 ng/ml), treated with compound 1 or TIPTP for 1 h, activated with ATP (1 mM) for 30 min; IP with anti-Rubicon, immunoblot
[2] = molecular target: T1, Run/cysteine-rich-domain-containing Beclin1-interacting autophagy protein (Rubicon) (mouse, endogenous) (mouse (endogenous in synoviocytes of CIA mice, BMDMs)); assay: co-IP; endogenous proteins, synovial fluid containing synoviocytes from CIA mice at the indicated times (also from CIA mice treated with TIPTP or vehicle); NP-40 buffer lysates, IP with anti-p22phox or anti-Rubicon, protein A/G agarose, immunoblot
[3] = molecular target: T2, p22phox (human, endogenous) (human (endogenous in monocytes and in synoviocytes of RA patients)); assay: co-IP; endogenous proteins, LPS-primed human monocytes treated with TIPTP (0.01, 0.1, 1 uM) for 30 min, then activated with ATP for 30 min; IP with anti-p22phox or anti-Rubicon, immunoblot
[4] = molecular target: T2, p22phox (human, endogenous) (human (endogenous in monocytes and in synoviocytes of RA patients)); assay: co-IP; endogenous proteins, LPS-primed synoviocytes from patients with RA (or OA) treated with TIPTP, then activated with ATP; IP with anti-p22phox or anti-Rubicon, immunoblot (Fig. 6c, Supplemental Fig. 7)

Row | binding [1] | binding [2] | binding [3] | binding [4] | Binder
1 | binds | binds | – | – | p22phox subunit of NADPH oxidase (mouse, endogenous) (protein, UniProt Q61462 1-192) MGQIEWAMWANEQALASGLILITGGIVATAGRFTQWYFGAYSIAAGVLICLLEYPRGKRKKGSTMERCGQKYLTSVVKLFGPLTRNYYVRAALHFLLSVPAGFLLATILGTVCLAIASVIYLLAAIRGEQWTPIEPKPKERPQVGGTIKQPPTNPPPRPPAEVRKKPSEGEEEAASAGGPQVNPMPVTDEVV
2 | – | – | binds | binds | Rubicon (human, endogenous) (protein, UniProt Q92622 1-972) MRPEGAGMELGGGEERLPEESRREHWQLLGNLKTTVEGLVSTNSPNVWSKYGGLERLCRDMQSILYHGLIRDQACRRQTDYWQFVKDIRWLSPHSALHVEKFISVHENDQSSADGASERAVAELWLQHSLQYHCLSAQLRPLLGDRQYIRKFYTDAAFLLSDAHVTAMLQCLEAVEQNNPRLLAQIDASMFARKHESPLLVTKSQSLTALPSSTYTPPNSYAQHSYFGSFSSLHQSVPNNGSERRSTSFPLSGPPRKPQESRGHVSPAEDQTIQAPPVSVSALARDSPLTPNEMSSSTLTSPIEASWVSSQNDSPGDASEGPEYLAIGNLDPRGRTASCQSHSSNAESSSSNLFSSSSSQKPDSAASSLGDQEGGGESQLSSVLRRSSFSEGQTLTVTSGAKKSHIRSHSDTSIASRGAPESCNDKAKLRGPLPYSGQSSEVSTPSSLYMEYEGGRYLCSGEGMFRRPSEGQSLISYLSEQDFGSCADLEKENAHFSISESLIAAIELMKCNMMSQCLEEEEVEEEDSDREIQELKQKIRLRRQQIRTKNLLPMYQEAEHGSFRVTSSSSQFSSRDSAQLSDSGSADEVDEFEIQDADIRRNTASSSKSFVSSQSFSHCFLHSTSAEAVAMGLLKQFEGMQLPAASELEWLVPEHDAPQKLLPIPDSLPISPDDGQHADIYKLRIRVRGNLEWAPPRPQIIFNVHPAPTRKIAVAKQNYRCAGCGIRTDPDYIKRLRYCEYLGKYFCQCCHENAQMAIPSRVLRKWDFSKYYVSNFSKDLLIKIWNDPLFNVQDINSALYRKVKLLNQVRLLRVQLCHMKNMFKTCRLAKELLDSFDTVPGHLTEDLHLYSLNDLTATRKGELGPRLAELTRAGATHVERCMLCQAKGFICEFCQNEDDIIFPFELHKCRTCEECKACYHKACFKSGSCPRCERLQARREALARQSLESYLSDYEEEPAEALALEAAVLEAT
